# PubChem BioAssay AID1259290, Sanger Institute | 2017
# Aim: 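siRNA screen across the kinome seeking synthetic lethal partners for BYL719, cetuximab or trametinib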 (primary screen)
# Cells: human SNUC1 colorectal cancer cells
# Reagent: siRNA pool against human genes
# Conditions: anchor drugs BYL719 1 µM, cetuximab 5 µg/ml or trametinib 10 nM, or DMSO vehicle alone
# Read-out: 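Cell viability relative to a non-targeting siRNA control, replicate-averaged, as robust z-score for knock-down alone, plus a synergy score for each anchor drug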
# Reading the numbers: viability z-score, siRNA alone: higher = more viable cells; low values mean essential gene; viability vs control, siRNA alone: higher = more viable cells; synergy score with BYL719 and synergy score with Cetuximab: higher = stronger synthetic lethal effect with drug
# Active means: 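a knock-down without drug scoring a robust z under -3 counts as essential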
# Meaning of the calls: active = essential: knock-down alone cut viability (z below -3); inactive = no clear viability loss with knock-down alone
# Here is a random part of 794 reagents tested. Of all reagents, 9 (1.1%) are marked active. 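Calls rest on knock-down alone, not drug synergy; synergy above 0.15 was grouped apart and does not affect calls.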 No viability above 1 is reported: the scale is capped. Further read-outs or replicates are left out here. Reagent sequences are not shown. Not given: the amount of reagent, the time to read-out.
gene symbol,"viability z-score, siRNA alone","viability vs control, siRNA alone",synergy score with BYL719,synergy score with Cetuximab,activity call
CDK1 (cyclin dependent kinase 1),0.936,1,-0.198,-0.0447,inactive
NEK4 (NIMA related kinase 4),-1.13,0.814,-0.108,0.19,inactive
SGK3 (serum/glucocorticoid regulated kinase family member 3),0.936,1,-0.0536,-0.0447,inactive
PHKB (phosphorylase kinase regulatory subunit beta),-0.0818,0.908,-0.0147,-0.0572,inactive
"PFKL (phosphofructokinase, liver type)",-0.987,0.827,-0.0939,-0.134,inactive
PIK3C3 (phosphatidylinositol 3-kinase catalytic subunit type 3),0.936,1,-0.114,-0.0117,inactive
CAMK1 (calcium/calmodulin dependent protein kinase I),0.936,1,-0.165,-0.0447,inactive
STK24 (serine/threonine kinase 24),0.936,1,-0.198,-0.0447,inactive
"PKDCC (protein kinase domain containing, cytoplasmic)",0.936,1,-0.045,0.0118,inactive
PIP4K2A (phosphatidylinositol-5-phosphate 4-kinase type 2 alpha),0.0186,0.917,-0.264,-0.124,inactive
MAP2K2 (mitogen-activated protein kinase kinase 2),0.936,1,-0.198,-0.0447,inactive
MAPK3 (mitogen-activated protein kinase 3),0.936,1,-0.00771,0.0102,inactive
MAP3K14 (mitogen-activated protein kinase kinase kinase 14),-1.58,0.773,-0.0442,-0.117,inactive
TAF1L (TATA-box binding protein associated factor 1 like),0.427,0.954,-0.189,0.2,inactive
PANK1 (pantothenate kinase 1),0.936,1,-0.141,-0.0447,inactive
TRIB3 (tribbles pseudokinase 3),-0.204,0.897,-0.136,0.0667,inactive
BCOR (BCL6 corepressor),0.936,1,-0.193,-0.0447,inactive
FGFR2 (fibroblast growth factor receptor 2),-1.02,0.824,-0.0506,-0.126,inactive
RPS6KB1 (ribosomal protein S6 kinase B1),-0.0329,0.913,-0.244,-0.0582,inactive
AKT1 (AKT serine/threonine kinase 1),0.936,1,-0.198,0.0126,inactive
ITSN1 (intersectin 1),0.144,0.929,-0.118,0.018,inactive
CHKA (choline kinase alpha),-0.3,0.889,0.0318,-0.0477,inactive
OXSR1 (oxidative stress responsive kinase 1),-0.413,0.878,-0.296,-0.0365,inactive
MAP4K4 (mitogen-activated protein kinase kinase kinase kinase 4),0.0925,0.924,-0.00197,0.132,inactive
STRADA (STE20 related adaptor alpha),0.936,1,-0.014,0.0134,inactive
LIMK2 (LIM domain kinase 2),-0.81,0.843,-0.00721,0.0856,inactive
MECOM (MDS1 and EVI1 complex locus),0.921,0.999,-0.199,-0.0461,inactive
TGFBR1 (transforming growth factor beta receptor 1),0.936,1,-0.0604,-0.0447,inactive
DIS3 (DIS3 exosome endoribonuclease and 3'-5' exoribonuclease),0.936,1,-0.0454,-0.00902,inactive
ALPK1 (alpha kinase 1),-1.24,0.804,-0.355,-0.139,inactive
PKN3 (protein kinase N3),0.767,0.985,-0.0161,0.142,inactive
ADCK1 (aarF domain containing kinase 1),0.936,1,0.00392,0.0254,inactive
PTK6 (protein tyrosine kinase 6),0.243,0.938,-0.2,-0.0972,inactive
HUS1 (HUS1 checkpoint clamp component),-0.68,0.854,0.0641,0.0967,inactive

Records above whose gene name starts with M or m (5):
gene symbol,"viability z-score, siRNA alone","viability vs control, siRNA alone",synergy score with BYL719,synergy score with Cetuximab,activity call
MAP2K2 (mitogen-activated protein kinase kinase 2),0.936,1,-0.198,-0.0447,inactive
MAPK3 (mitogen-activated protein kinase 3),0.936,1,-0.00771,0.0102,inactive
MAP3K14 (mitogen-activated protein kinase kinase kinase 14),-1.58,0.773,-0.0442,-0.117,inactive
MAP4K4 (mitogen-activated protein kinase kinase kinase kinase 4),0.0925,0.924,-0.00197,0.132,inactive
MECOM (MDS1 and EVI1 complex locus),0.921,0.999,-0.199,-0.0461,inactive
